Results of single-concentration screens

Amino acid sequences for entries named in this document (tags omitted). Residues count along the entry.
UniProt P9WNZ1, whole entry: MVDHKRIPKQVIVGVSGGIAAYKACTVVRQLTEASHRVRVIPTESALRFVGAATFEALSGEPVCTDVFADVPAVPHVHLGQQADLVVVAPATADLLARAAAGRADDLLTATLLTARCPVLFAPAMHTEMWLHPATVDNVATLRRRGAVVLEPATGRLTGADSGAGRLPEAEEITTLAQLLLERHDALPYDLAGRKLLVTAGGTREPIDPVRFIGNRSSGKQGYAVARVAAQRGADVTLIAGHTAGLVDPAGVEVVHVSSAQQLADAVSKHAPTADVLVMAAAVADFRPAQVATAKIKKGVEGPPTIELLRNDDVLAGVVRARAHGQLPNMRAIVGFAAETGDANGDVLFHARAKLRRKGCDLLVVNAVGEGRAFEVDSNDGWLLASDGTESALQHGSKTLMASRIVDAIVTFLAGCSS
UniProt Q8IDJ8, 1-583: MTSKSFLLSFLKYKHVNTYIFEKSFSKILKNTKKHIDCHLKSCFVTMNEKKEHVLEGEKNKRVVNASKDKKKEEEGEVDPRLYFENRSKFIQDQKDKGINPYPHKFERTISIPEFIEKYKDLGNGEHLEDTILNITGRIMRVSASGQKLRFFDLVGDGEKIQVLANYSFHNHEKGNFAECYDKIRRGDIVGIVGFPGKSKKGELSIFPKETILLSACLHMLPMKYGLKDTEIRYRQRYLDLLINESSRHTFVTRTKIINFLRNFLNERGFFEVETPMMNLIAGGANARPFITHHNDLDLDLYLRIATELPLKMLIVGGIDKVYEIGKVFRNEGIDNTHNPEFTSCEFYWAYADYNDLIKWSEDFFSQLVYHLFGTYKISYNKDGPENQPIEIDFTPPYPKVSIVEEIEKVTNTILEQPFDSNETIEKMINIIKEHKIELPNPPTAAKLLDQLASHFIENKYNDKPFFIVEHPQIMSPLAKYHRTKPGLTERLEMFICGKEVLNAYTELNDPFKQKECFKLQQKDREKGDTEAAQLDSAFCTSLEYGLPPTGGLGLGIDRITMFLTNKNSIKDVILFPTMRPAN
UniProt A4I591, 1-473: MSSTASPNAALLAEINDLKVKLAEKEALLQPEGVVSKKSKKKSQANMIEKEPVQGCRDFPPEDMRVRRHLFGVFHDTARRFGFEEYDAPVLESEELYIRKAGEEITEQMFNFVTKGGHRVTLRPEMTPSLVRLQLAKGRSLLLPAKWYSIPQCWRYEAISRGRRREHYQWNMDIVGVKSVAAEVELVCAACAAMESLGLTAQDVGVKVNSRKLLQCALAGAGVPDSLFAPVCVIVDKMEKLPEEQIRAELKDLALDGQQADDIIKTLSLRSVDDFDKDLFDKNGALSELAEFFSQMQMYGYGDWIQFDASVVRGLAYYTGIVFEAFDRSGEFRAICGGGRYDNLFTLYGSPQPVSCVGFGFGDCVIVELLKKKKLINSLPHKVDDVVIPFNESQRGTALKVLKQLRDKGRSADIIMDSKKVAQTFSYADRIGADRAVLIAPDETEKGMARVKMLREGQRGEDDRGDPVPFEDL

Data taken from ChEMBL document CHEMBL3988442, “University of Dundee, Small-Polar-MMV Screening Library” (2021).

A: 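Coenzyme A biosynthesis protein CoaBC, Mycobacterium tuberculosis (UniProt P9WNZ1). Enzyme assay of CoaBC with a phosphate dye (Biomol Green) read at 650 nm. Compounds at 30 µM. Higher reads as stronger inhibition, judged from the few compounds that gave an IC50. Most strong results did not repeat in a second test. Of about 67,000 compounds tested this way, about 40 (0.06%) reached 50% or more in at least one test.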
B: 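Enzyme assay of the cytosolic lysyl-tRNA synthetase in 384-well plates, read by luminescence. Target: Lysine-tRNA ligase, Plasmodium falciparum 3D7 (UniProt Q8IDJ8). Concentration: 30 µM. Direction is inferred from only a few compounds that gave an IC50; most scored high, so higher reads as stronger inhibition. Of about 69,000 compounds tested this way, about 49 (0.071%) reached 50% or more in at least one test.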
C: 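Enzyme assay of histidyl-tRNA synthetase; the read-out is not stated. Target: Histidine-tRNA ligase, Leishmania infantum (UniProt A4I591). Tested at 30 µM. Higher reads as stronger inhibition (inferred: compounds with an IC50 in retests scored well above the rest). The assay is labelled LdHisRS but filed under L. infantum. About 69,000 compounds were tested under these conditions; 0.6% (about 410) showed 50% or more at least once.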

Results are given as percent effect.
The controls that fix the scale are not given in the record; negative values are as filed.
The compounds are a random part of those screened.

{"structure": "c1ccc(C(NCc2nnc(-c3ccco3)o2)C2CCC2)cc1", "stereo": "configuration not stated", "A": 2.02, "B": 2.085, "C": 21.05}
{"structure": "Cc1c(C(=O)NCC(C)(C)S(C)(=O)=O)cccc1-c1ccccn1", "A": 0.3764, "B": 5.447, "C": 13.25}
{"structure": "O=C(CNc1ccc(F)cc1OCC(F)(F)F)NCC(F)(F)F", "A": 6.357, "B": 2.337, "C": 12.9}
{"structure": "Cn1cc(CN2CCC3(CC2)CN(c2cccnc2)C(=O)CO3)cn1", "A": 3.951, "B": 3.438, "C": 6.364}
{"structure": "COc1ccccc1C1(C(=O)N2CCN(CC(C)O)CC2)CC1", "stereo": "configuration not stated", "A": 6.364, "B": 7.149, "C": 13.7}
{"structure": "CSc1ccccc1NC(=O)CCC(=O)N(C)C1CCN(C)CC1", "A": 1.411, "B": 5.797, "C": 15.15}
{"structure": "COC(=O)CCC(=O)N1CCC2(CN(Cc3cccc(F)c3)C2)C1", "A": -0.1269, "B": -2.088, "C": 0}
{"structure": "CC(=O)NCC(=O)N1CCn2cc(CN(C)Cc3ccco3)nc2C1", "A": -17.05, "B": 4.64, "C": 6.195}
{"structure": "CC(=O)NCCNC(=O)CN1CCCC(Cn2cncn2)C1", "stereo": "configuration not stated", "A": 0.5222, "B": 3.239, "C": 13.79}
{"structure": "Cc1nc(CO[C@@H]2CN(Cc3cccs3)[C@@H]3COC[C@@H]32)cs1", "A": 1.11, "B": 0.2479, "C": 4.839}
{"structure": "O=C(NC1CC1)c1cc(Cl)ccc1-n1cnnn1", "A": -3.427, "B": 0.7562, "C": -6.061}
{"structure": "Cn1c(=O)n(C)c2cc(NS(=O)(=O)Cc3cccc(F)c3)ccc21", "A": -11.16, "B": 4.615, "C": 10.42}
{"structure": "N#Cc1c(F)cccc1N1CCCC(C(=O)Nc2nncs2)C1", "stereo": "configuration not stated", "A": 2.672, "B": 1.754, "C": 26.83}
{"structure": "O=C(NCc1ccco1)[C@H]1CC[C@@H]2[C@@H](CCN2Cc2cccnc2)O1", "A": 1.794, "B": 2.621, "C": 23.29}
{"structure": "CC1(C)OCC2(CO1)CN(C(=O)c1ccccc1Br)C2", "A": 0.6342, "B": 0.9846, "C": 12.17}
{"structure": "CNC(=O)C(C)(C)NC(=O)c1cc(COc2cccc(C(C)=O)c2)[nH]n1", "A": 0.9828, "B": 1.419, "C": 25.81}
{"structure": "CN(Cc1cc(C2CC2)on1)C(=O)C(c1cccnc1)N1CCCC1", "stereo": "configuration not stated", "A": -0.8, "B": 0.2886, "C": 5.128}
{"structure": "NC(=O)c1cnn2c(C3CCN(CCO)CC3)ccnc12", "A": 2.392, "B": 0.3417, "C": 11.51}
{"structure": "CCC(CO)NC(=O)c1ccc2ccc(N(C)CC3CC3)n2c1", "stereo": "configuration not stated", "A": -1.209, "B": -4.919, "C": 7.317}
{"structure": "CN1C[C@@H](C(=O)NC(C)(C)C)[C@@]2(CCc3ccccc3C(=O)N2)C1", "A": -6.311, "B": -0.6798, "C": 10}
{"structure": "O=C(CCOc1cccc(F)c1)N1CCCC(n2cncn2)C1", "stereo": "configuration not stated", "A": 1.828, "B": 5.154, "C": 10.81}
{"structure": "CC(C)(C)OC(=O)NC1CCC(NC(=O)c2ccc[nH]2)CC1", "stereo": "configuration not stated", "A": -4.634, "B": 8.23, "C": 16}
{"structure": "COc1ccc(N2CCN(Cc3nc(CSC)no3)C(C)C2=O)cc1", "stereo": "configuration not stated", "A": 5.395, "B": 2.185, "C": 8.434}
{"structure": "Cc1ccc(N2CCC(CCN3CCCC3=O)CC2)nn1", "A": 7.152, "B": 1.52, "C": 20.48}
{"structure": "COc1cccc(C2CCCN2C(=O)c2cc3c(nc2OC)CCC3)c1", "stereo": "configuration not stated", "A": 1.411, "B": 4.354, "C": 21.21}
{"structure": "CCn1cc(CNC2CCN(c3c(F)cccc3F)C2)cn1", "stereo": "configuration not stated", "A": 4.854, "B": -2.802, "C": 4.819}
{"structure": "c1cnc(-c2nc(CN3CCCC(Cn4cncn4)C3)cs2)nc1", "stereo": "configuration not stated", "A": -2.491, "B": 6.887, "C": 19.05}
{"structure": "Cc1noc(CNc2ccc(CC(=O)N3CCSCC3)cc2)n1", "A": -3.212, "B": 3.305, "C": 6.667}
{"structure": "CCCN1CCC(c2nc3ccc(C)cn3n2)CC1", "A": 5.074, "B": 0.1194, "C": 3.96}
{"structure": "CC(=O)NC(C)(C)c1noc(C2(C#N)CCCCC2)n1", "A": 6.638, "B": 3.465, "C": 13.79}
{"structure": "CCc1nccn1C1CCCN(C(=O)c2ccc3c(c2)OCCO3)C1", "stereo": "configuration not stated", "A": 5.548, "B": 2.108, "C": 6.957}
{"structure": "O=C1CCC2(CCCN(C(=O)c3ccoc3)C2)CN1Cc1ccncc1", "stereo": "configuration not stated", "A": 6.21, "B": -2.309, "C": 6.667}
{"structure": "CS(=O)(=O)c1ncc(CN2CCCC(C(N)=O)C2)n1CC1CCCCC1", "stereo": "configuration not stated", "A": 2.564, "B": 1.839, "C": 6.061}
{"structure": "CC(C)(C)c1cn2c(n1)C(CNCc1ccccn1)CCC2", "stereo": "configuration not stated", "A": 2.826, "B": 2.963, "C": 10.85}
{"structure": "CNC(=O)NC(=O)CCN1CCOC(c2ccc(Br)cc2)C1", "stereo": "configuration not stated", "A": 4.925, "B": -0.4345, "C": 10.34}

The last 3 entries again:

Result for CS(=O)(=O)c1ncc(CN2CCCC(C(N)=O)C2)n1CC1CCCCC1 (configuration not stated) was A: 2.564%; B: 1.839%; C: 6.061%.
Result for CC(C)(C)c1cn2c(n1)C(CNCc1ccccn1)CCC2 (configuration not stated) was A: 2.826%; B: 2.963%; C: 10.85%.
Result for CNC(=O)NC(=O)CCN1CCOC(c2ccc(Br)cc2)C1 (configuration not stated) was A: 4.925%; B: -0.4345%; C: 10.34%.